# Source: the supplement of paper PMC12819154, “High-throughput peptide-centric local stability assay extends protein–ligand identification to membrane proteins, tissues and bacteria” (Nature Structural & Molecular Biology, 2025)
# Chains of the proteins cited; added tags and fusions are not shown. Lines headed by an entry give the natural chain unless they say otherwise; changes in a name come on top.
# UniProt Q9CX56: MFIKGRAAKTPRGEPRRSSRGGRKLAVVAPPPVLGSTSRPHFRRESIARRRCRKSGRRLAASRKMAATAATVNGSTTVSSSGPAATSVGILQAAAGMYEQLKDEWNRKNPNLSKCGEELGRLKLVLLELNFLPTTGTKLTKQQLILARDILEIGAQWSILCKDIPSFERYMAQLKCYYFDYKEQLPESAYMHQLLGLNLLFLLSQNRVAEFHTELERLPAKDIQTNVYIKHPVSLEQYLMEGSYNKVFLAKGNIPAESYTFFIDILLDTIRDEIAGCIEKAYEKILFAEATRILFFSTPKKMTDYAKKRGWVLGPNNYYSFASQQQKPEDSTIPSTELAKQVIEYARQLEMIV
# UniProt Q9CQD1: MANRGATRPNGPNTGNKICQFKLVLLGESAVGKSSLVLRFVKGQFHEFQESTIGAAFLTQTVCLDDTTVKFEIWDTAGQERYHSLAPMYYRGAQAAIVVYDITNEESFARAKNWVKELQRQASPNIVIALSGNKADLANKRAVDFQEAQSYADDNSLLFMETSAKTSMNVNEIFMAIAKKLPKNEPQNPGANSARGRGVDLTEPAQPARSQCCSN
# UniProt Q99LF4: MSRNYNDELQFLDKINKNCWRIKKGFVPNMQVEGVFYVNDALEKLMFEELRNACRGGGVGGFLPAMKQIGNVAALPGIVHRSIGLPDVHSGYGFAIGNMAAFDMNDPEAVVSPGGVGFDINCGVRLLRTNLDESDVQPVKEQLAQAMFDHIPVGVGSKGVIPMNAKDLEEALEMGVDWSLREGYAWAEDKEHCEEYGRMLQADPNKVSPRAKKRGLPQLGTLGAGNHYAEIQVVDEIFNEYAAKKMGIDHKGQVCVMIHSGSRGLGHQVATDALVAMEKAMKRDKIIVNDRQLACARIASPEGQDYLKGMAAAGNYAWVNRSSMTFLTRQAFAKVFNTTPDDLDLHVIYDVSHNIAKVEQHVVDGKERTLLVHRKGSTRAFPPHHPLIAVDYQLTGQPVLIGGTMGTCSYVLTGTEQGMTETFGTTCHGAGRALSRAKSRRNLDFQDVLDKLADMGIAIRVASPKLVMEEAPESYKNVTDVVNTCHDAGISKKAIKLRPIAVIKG
# UniProt Q99KK7: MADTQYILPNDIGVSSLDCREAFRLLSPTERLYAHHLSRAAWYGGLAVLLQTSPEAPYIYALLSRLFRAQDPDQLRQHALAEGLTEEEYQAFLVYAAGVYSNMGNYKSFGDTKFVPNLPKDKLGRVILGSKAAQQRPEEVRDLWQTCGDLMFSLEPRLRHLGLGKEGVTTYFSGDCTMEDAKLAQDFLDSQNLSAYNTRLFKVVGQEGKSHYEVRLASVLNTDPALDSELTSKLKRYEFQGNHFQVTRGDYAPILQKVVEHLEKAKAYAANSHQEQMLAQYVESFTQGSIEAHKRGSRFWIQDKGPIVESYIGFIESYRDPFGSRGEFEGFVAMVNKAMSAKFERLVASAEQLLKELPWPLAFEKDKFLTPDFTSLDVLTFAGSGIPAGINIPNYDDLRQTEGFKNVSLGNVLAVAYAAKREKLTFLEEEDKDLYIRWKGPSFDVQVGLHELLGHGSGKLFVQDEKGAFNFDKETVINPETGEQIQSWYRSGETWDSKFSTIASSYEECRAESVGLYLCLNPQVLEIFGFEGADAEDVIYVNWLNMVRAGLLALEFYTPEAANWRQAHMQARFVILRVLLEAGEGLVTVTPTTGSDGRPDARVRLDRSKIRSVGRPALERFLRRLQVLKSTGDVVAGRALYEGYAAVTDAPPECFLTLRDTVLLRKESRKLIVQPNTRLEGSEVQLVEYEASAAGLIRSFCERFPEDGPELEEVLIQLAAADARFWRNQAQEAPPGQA
# UniProt Q99L88: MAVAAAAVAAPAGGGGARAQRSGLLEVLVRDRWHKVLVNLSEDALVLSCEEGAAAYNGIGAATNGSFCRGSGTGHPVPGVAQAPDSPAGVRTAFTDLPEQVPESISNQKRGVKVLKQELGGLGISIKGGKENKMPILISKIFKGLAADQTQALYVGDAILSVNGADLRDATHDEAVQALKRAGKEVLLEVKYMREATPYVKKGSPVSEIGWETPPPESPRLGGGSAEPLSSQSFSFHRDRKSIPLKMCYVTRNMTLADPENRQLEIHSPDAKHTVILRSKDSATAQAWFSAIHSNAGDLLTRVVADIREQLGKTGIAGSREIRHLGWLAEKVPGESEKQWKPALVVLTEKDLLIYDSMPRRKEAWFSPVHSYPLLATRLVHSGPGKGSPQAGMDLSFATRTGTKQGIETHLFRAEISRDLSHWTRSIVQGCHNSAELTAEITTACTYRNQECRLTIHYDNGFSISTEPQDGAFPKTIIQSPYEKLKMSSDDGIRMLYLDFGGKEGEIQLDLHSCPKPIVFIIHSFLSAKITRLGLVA
# UniProt Q99LG2: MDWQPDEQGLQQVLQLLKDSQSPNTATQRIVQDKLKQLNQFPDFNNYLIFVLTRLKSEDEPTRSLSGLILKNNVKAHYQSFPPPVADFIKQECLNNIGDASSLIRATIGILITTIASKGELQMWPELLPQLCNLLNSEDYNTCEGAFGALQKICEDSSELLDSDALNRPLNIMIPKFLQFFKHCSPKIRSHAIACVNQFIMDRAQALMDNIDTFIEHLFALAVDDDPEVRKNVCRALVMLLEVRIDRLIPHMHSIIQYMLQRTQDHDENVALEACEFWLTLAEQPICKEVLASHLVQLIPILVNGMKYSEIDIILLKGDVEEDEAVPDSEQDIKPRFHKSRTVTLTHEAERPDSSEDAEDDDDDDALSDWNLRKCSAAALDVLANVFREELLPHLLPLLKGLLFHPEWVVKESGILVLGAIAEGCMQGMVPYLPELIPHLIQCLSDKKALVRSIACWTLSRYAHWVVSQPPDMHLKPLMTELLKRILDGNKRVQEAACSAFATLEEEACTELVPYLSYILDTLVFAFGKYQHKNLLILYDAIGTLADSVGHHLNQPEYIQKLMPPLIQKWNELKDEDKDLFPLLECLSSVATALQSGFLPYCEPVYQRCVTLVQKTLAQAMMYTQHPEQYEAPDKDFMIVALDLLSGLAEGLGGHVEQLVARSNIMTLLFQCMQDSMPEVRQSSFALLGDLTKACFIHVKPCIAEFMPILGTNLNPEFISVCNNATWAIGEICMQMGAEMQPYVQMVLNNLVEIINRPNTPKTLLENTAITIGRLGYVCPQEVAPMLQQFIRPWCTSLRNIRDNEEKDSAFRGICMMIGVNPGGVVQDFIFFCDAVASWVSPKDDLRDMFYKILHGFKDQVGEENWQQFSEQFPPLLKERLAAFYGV
# UniProt Q99LX0: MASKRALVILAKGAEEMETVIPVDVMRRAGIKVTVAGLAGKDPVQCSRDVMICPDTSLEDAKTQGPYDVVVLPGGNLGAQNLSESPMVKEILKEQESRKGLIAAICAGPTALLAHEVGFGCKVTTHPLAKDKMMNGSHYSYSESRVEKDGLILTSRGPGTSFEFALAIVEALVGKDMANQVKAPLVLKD
# UniProt Q99JY3: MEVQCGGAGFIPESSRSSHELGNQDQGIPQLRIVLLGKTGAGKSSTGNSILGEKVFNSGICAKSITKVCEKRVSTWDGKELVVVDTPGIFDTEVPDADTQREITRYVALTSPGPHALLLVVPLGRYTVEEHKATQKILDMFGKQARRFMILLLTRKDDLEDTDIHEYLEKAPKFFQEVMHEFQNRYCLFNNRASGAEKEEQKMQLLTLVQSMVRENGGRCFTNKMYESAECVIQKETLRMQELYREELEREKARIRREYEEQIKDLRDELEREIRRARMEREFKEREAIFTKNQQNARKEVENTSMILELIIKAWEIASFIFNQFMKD
# UniProt Q9CQV8: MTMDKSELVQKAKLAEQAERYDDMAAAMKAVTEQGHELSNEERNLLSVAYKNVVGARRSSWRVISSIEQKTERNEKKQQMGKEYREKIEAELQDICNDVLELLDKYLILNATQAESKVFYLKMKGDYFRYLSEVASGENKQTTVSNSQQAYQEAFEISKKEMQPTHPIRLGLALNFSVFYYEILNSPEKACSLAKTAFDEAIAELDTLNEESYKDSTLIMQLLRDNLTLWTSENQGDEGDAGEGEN
# UniProt Q9CXE7: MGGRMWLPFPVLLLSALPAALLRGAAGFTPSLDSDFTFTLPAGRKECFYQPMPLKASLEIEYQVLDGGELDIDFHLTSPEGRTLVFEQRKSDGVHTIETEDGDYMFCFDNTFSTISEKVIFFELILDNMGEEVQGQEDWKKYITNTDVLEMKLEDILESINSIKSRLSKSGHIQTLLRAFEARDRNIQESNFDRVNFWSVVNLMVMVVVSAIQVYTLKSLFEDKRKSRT
# UniProt Q99KF1: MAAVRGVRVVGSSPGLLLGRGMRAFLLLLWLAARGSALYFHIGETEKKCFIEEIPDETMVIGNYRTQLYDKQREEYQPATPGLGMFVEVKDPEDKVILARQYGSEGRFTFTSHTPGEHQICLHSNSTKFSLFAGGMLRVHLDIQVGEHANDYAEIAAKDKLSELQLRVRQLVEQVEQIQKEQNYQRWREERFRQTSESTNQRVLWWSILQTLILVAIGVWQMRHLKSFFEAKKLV
# UniProt Q9CQ00: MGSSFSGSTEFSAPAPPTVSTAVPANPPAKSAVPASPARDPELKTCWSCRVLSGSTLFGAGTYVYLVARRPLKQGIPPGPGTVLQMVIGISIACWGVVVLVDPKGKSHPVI
# UniProt Q99K67: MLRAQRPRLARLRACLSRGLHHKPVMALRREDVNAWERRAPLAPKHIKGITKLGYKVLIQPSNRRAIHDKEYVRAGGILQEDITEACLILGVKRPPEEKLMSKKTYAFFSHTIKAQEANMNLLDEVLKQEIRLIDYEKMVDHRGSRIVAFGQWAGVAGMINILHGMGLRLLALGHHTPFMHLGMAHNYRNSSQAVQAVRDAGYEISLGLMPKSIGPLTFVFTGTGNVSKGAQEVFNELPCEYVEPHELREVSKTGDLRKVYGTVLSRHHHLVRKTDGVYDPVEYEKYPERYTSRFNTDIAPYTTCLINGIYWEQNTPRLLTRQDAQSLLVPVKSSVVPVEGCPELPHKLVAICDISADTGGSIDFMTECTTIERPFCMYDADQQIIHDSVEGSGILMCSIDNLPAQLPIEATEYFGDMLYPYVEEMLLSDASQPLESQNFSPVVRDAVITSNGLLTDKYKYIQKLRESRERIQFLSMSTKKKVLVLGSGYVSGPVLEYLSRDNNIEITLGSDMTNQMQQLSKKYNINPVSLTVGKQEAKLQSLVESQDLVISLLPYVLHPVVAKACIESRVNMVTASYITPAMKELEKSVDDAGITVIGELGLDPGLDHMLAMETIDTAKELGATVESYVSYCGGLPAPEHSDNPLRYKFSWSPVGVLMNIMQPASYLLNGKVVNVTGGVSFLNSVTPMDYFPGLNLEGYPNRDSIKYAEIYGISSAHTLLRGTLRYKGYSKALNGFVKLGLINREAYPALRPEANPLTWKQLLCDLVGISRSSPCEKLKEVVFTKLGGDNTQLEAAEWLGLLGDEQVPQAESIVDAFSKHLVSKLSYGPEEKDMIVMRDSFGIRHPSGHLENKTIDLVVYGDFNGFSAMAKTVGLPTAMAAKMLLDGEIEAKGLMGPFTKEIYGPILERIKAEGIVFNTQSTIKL
# UniProt Q99LB2: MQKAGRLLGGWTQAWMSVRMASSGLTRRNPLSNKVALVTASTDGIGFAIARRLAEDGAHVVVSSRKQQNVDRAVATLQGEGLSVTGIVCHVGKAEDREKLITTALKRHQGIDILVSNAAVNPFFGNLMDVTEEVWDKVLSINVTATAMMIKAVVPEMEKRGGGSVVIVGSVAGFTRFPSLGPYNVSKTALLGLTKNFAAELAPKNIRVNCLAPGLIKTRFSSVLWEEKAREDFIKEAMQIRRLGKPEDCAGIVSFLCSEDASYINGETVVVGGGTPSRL
# UniProt Q9CQ80: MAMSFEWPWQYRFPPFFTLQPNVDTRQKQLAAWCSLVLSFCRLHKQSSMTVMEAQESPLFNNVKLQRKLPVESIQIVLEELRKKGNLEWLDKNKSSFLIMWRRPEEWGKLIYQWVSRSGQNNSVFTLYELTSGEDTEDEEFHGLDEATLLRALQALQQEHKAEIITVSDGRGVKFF
# UniProt Q99LB6: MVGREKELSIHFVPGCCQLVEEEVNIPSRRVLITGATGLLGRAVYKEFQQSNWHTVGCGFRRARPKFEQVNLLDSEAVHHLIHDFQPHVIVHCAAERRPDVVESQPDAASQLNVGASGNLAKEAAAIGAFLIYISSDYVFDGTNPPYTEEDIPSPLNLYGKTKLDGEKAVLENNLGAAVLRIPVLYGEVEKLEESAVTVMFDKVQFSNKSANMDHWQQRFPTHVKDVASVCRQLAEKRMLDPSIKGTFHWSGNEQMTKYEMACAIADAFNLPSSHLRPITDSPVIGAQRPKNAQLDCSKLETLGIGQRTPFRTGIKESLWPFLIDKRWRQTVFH
# UniProt Q99LU0: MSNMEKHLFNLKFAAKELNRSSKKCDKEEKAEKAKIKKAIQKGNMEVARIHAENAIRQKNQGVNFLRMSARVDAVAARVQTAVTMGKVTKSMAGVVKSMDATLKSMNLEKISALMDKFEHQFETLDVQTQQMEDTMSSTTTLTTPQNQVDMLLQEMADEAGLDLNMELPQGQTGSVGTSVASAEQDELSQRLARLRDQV
# This is one part of the list. Most entries show no effect beyond the scatter of the controls.
# Compound: CN[C@@H]1C[C@H]2O[C@@](C)([C@@H]1OC)n1c3ccccc3c3c4c(c5c6ccccc6n2c5c31)C(=O)NC4 [staurosporine]
# Test: log2 fold change of pooled soluble protein (PISA), ligand vs vehicle (log2 ratio); higher = more thermally stabilized
# Settings: ligand concentration: 20 uM; assay format: PISA pool 52.9/55.5/58.6 C
row,Target,log2 fold change of pooled soluble protein
1,UniProt Q99KR7,0.127
2,UniProt Q99LD4,-0.0191
3,UniProt Q9CX56,-0.114
4,UniProt Q9CQ56,-0.038
5,UniProt Q9CQD1,-0.0755
6,UniProt Q9CQI7,0.0269
7,UniProt Q99LF4,-0.0948
8,UniProt Q9CQN7,0.0577
9,UniProt Q9CXA2,-0.0604
10,UniProt Q99NH2,-0.0279
11,UniProt Q9CQB2,0.0898
12,UniProt Q99KK7,0.0404
13,UniProt Q99LC3,-0.0524
14,UniProt Q99L88,0.0602
15,UniProt Q99KP6,-0.0103
16,UniProt Q9CR61,-0.202
17,UniProt Q99LG2,-0.172
18,UniProt Q99LX0,-0.0636

row,Target,log2 fold change of pooled soluble protein
1,UniProt Q99JY3,-0.00117
2,UniProt Q9CR35,-0.0259
3,UniProt Q9CQV8,0.0961
4,UniProt Q9CXE7,0.0264
5,UniProt Q99KF1,-0.00609
6,UniProt Q9CQ00,0.256
7,UniProt Q99JY0,-0.151
8,UniProt Q9CU62,-0.156
9,UniProt Q99K67,-0.0892
10,UniProt Q99JP6,0.303
11,UniProt Q9CR67,-0.0346
12,UniProt Q99LB2,-0.0145
13,UniProt Q9CRA9,0.334
14,UniProt Q9CQ80,0.000485
15,UniProt Q99LB6,-0.139
16,UniProt Q9CVB6,0.00556
17,UniProt Q99LU0,-0.153
18,UniProt Q9CWJ9,0.0287

# Two entries picked at random from the list so far, as already listed:
row,Target,log2 fold change of pooled soluble protein
18,UniProt Q9CWJ9,0.0287
10,UniProt Q99JP6,0.303
